Laboratory results published in publication PMC11005723, “Development of Complementary Photo‐arginine/lysine to Promote Discovery of Arg/Lys hPTMs Interactomes” (Advanced Science, 2024).
Further values from the same series stand in other lists.

System: HEK293T nuclear lysates
Assay: SILAC‐based pull‐down proteomics H4K5me2/H4K5 (probes 7/5)
Assay type: binding, human
Details: for F6 log2 (H4K5me2/H4K5): run F6; for E6 log2 (H4K5me2/H4K5): run E6

## probe 7: H4K5me2 peptide probe with photo‐arginine R(dz) and K(biotin) (SGRGKGGKGLGKGGK; photo-arginine R(dz) at 3; dimethyl-lysine at 5; K(biotin) at 15)
Protein P50990 CCT8
  F6 log2 (H4K5me2/H4K5): 0.3492
Protein P52701 MSH6
  E6 log2 (H4K5me2/H4K5): 0.2964
  F6 log2 (H4K5me2/H4K5): 0.1666
Protein P56545 CTBP2
  E6 log2 (H4K5me2/H4K5): 0.3739
  F6 log2 (H4K5me2/H4K5): 0.4212
Protein P60174 TPI1
  E6 log2 (H4K5me2/H4K5): 0.243
  F6 log2 (H4K5me2/H4K5): 0.3241
Protein P60709 ACTB
  E6 log2 (H4K5me2/H4K5): 0.2405
  F6 log2 (H4K5me2/H4K5): 0.08858
Protein P60842 EIF4A1
  E6 log2 (H4K5me2/H4K5): 0.348
  F6 log2 (H4K5me2/H4K5): 0.4523
Protein P61978 HNRNPK
  E6 log2 (H4K5me2/H4K5): 0.2874
  F6 log2 (H4K5me2/H4K5): 0.2631
Protein P63104 YWHAZ
  E6 log2 (H4K5me2/H4K5): 0.3421
  F6 log2 (H4K5me2/H4K5): 0.02806
Protein P63241 EIF5A
  E6 log2 (H4K5me2/H4K5): 0.2374
  F6 log2 (H4K5me2/H4K5): 0.1264
Protein P68366 TUBA4A
  E6 log2 (H4K5me2/H4K5): 0.23
  F6 log2 (H4K5me2/H4K5): 0.05704
Protein P78527 PRKDC
  E6 log2 (H4K5me2/H4K5): 0.279
  F6 log2 (H4K5me2/H4K5): 0.2967
Protein Q1KMD3 HNRNPUL2
  E6 log2 (H4K5me2/H4K5): 0.3577
  F6 log2 (H4K5me2/H4K5): 0.1623
Protein Q5T760 SFRS11
  E6 log2 (H4K5me2/H4K5): 0.3801
  F6 log2 (H4K5me2/H4K5): 0.2959
Protein Q8N1G2 FTSJD2
  E6 log2 (H4K5me2/H4K5): 0.196
  F6 log2 (H4K5me2/H4K5): 0.2886
Protein Q8N3X1 FNBP4
  E6 log2 (H4K5me2/H4K5): 0.2598
  F6 log2 (H4K5me2/H4K5): 0.34
Protein Q8TAQ2 SMARCC2
  E6 log2 (H4K5me2/H4K5): 0.2631
  F6 log2 (H4K5me2/H4K5): 0.08408
Protein Q9BSD7 NTPCR
  E6 log2 (H4K5me2/H4K5): 0.278
  F6 log2 (H4K5me2/H4K5): 0.2018
Protein Q9BWF3 RBM4
  E6 log2 (H4K5me2/H4K5): 0.3706
  F6 log2 (H4K5me2/H4K5): 0.1463
Protein Q9C0J8 WDR33
  E6 log2 (H4K5me2/H4K5): 0.2021
  F6 log2 (H4K5me2/H4K5): -0.3674
Protein Q9HB71 CACYBP
  E6 log2 (H4K5me2/H4K5): 0.274
  F6 log2 (H4K5me2/H4K5): 0.1197
Protein Q9HC35 EML4
  E6 log2 (H4K5me2/H4K5): 0.293
  F6 log2 (H4K5me2/H4K5): 0.4673
Protein Q9NQW6 ANLN
  E6 log2 (H4K5me2/H4K5): 0.3075
  F6 log2 (H4K5me2/H4K5): 0.626
Protein Q9NSD9 FARSB
  E6 log2 (H4K5me2/H4K5): 0.3373
  F6 log2 (H4K5me2/H4K5): -0.2354
Protein Q9NW13 RBM28
  E6 log2 (H4K5me2/H4K5): 0.2631
  F6 log2 (H4K5me2/H4K5): -0.251
Protein Q9UBD5 ORC3
  E6 log2 (H4K5me2/H4K5): 0.3325
  F6 log2 (H4K5me2/H4K5): 0.2093
Protein Q9UHD1 CHORDC1
  E6 log2 (H4K5me2/H4K5): 0.2778
  F6 log2 (H4K5me2/H4K5): 0.09315
Protein Q9UKN8 GTF3C4
  E6 log2 (H4K5me2/H4K5): 0.2915
  F6 log2 (H4K5me2/H4K5): 0.4741
Protein Q9UQ80 PA2G4
  E6 log2 (H4K5me2/H4K5): 0.3379
  F6 log2 (H4K5me2/H4K5): 0.3475
Protein Q9Y3I0 C22orf28
  E6 log2 (H4K5me2/H4K5): 0.2896
  F6 log2 (H4K5me2/H4K5): 0.3483
Protein Q9Y6W5 WASF2
  E6 log2 (H4K5me2/H4K5): 0.2111
  F6 log2 (H4K5me2/H4K5): 0.1053
Protein Q9Y6X8 ZHX2
  E6 log2 (H4K5me2/H4K5): 0.187
  F6 log2 (H4K5me2/H4K5): -0.2081
Protein Q9Y265 RUVBL1
  E6 log2 (H4K5me2/H4K5): 0.1875
  F6 log2 (H4K5me2/H4K5): -0.1779
Protein Q29RF7 PDS5A
  E6 log2 (H4K5me2/H4K5): 0.2478
  F6 log2 (H4K5me2/H4K5): 0.1704
Protein Q52LJ0-2 FAM98B
  E6 log2 (H4K5me2/H4K5): 0.3677
  F6 log2 (H4K5me2/H4K5): -0.205
Protein Q86UE8 TLK2
  E6 log2 (H4K5me2/H4K5): 0.3586
  F6 log2 (H4K5me2/H4K5): -0.4255
Protein Q96JB3 HIC2
  E6 log2 (H4K5me2/H4K5): 0.2025
  F6 log2 (H4K5me2/H4K5): 0.2964
Protein Q96T88 UHRF1
  E6 log2 (H4K5me2/H4K5): 0.2877
  F6 log2 (H4K5me2/H4K5): 0.06687
Protein Q07955 SRSF1
  E6 log2 (H4K5me2/H4K5): 0.3266
  F6 log2 (H4K5me2/H4K5): 0.005776
Protein Q08170 SRSF4
  E6 log2 (H4K5me2/H4K5): 0.3831
  F6 log2 (H4K5me2/H4K5): -0.146
Protein Q10570 CPSF1
  E6 log2 (H4K5me2/H4K5): 0.2478
  F6 log2 (H4K5me2/H4K5): 0.1414
Protein Q12789 GTF3C1
  E6 log2 (H4K5me2/H4K5): 0.209
  F6 log2 (H4K5me2/H4K5): 0.2928
Protein Q12996 CSTF3
  E6 log2 (H4K5me2/H4K5): 0.2524
  F6 log2 (H4K5me2/H4K5): -0.3083
Protein Q13123 IK
  E6 log2 (H4K5me2/H4K5): 0.2579
  F6 log2 (H4K5me2/H4K5): 0.2112
Protein Q13263 TRIM28
  E6 log2 (H4K5me2/H4K5): 0.3148
  F6 log2 (H4K5me2/H4K5): 0.2619
Protein Q14204 DYNC1H1
  E6 log2 (H4K5me2/H4K5): 0.2946
  F6 log2 (H4K5me2/H4K5): 0.3599
Protein Q14566 MCM6
  E6 log2 (H4K5me2/H4K5): 0.274
  F6 log2 (H4K5me2/H4K5): 0.258
Protein Q14974 KPNB1
  E6 log2 (H4K5me2/H4K5): 0.237
  F6 log2 (H4K5me2/H4K5): 0.101
Protein Q15233 NONO
  E6 log2 (H4K5me2/H4K5): 0.1849
  F6 log2 (H4K5me2/H4K5): 0.2662
Protein Q15365 PCBP1
  E6 log2 (H4K5me2/H4K5): 0.2125
  F6 log2 (H4K5me2/H4K5): 0.1048
Protein Q15393 SF3B3
  E6 log2 (H4K5me2/H4K5): 0.2478
  F6 log2 (H4K5me2/H4K5): 0.1091
Protein Q15398 DLGAP5
  E6 log2 (H4K5me2/H4K5): 0.1992
  F6 log2 (H4K5me2/H4K5): 0.1203
Protein Q16531 DDB1
  E6 log2 (H4K5me2/H4K5): 0.3498
  F6 log2 (H4K5me2/H4K5): 0.212
Protein Q92541 RTF1
  E6 log2 (H4K5me2/H4K5): 0.1798
  F6 log2 (H4K5me2/H4K5): -0.05357
Protein Q92576 PHF3
  E6 log2 (H4K5me2/H4K5): 0.2562
  F6 log2 (H4K5me2/H4K5): 0.4074
Protein Q92973 TNPO1
  E6 log2 (H4K5me2/H4K5): 0.2351
  F6 log2 (H4K5me2/H4K5): 0.2132
Protein Q99661 KIF2C
  E6 log2 (H4K5me2/H4K5): 0.3767
  F6 log2 (H4K5me2/H4K5): 0.2802
